Test results: paper PMC10176748
No constants are given. Whether binding was seen depends on the method and setting. Binding seen in cells or lysates may run through a third protein. Some binding calls cover weakened binding; strength is not graded here. Values belong to the molecule of their own block, whether it stands above or below them.

Amino acid sequences for entries named in this document (tags omitted). Residues count along the entry.
UniProt Q64339, residues 1-155: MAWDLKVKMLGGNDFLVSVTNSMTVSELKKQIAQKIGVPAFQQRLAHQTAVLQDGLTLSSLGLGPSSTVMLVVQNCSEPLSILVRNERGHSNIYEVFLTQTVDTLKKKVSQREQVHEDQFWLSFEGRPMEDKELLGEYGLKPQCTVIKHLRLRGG
UniProt E9Q555: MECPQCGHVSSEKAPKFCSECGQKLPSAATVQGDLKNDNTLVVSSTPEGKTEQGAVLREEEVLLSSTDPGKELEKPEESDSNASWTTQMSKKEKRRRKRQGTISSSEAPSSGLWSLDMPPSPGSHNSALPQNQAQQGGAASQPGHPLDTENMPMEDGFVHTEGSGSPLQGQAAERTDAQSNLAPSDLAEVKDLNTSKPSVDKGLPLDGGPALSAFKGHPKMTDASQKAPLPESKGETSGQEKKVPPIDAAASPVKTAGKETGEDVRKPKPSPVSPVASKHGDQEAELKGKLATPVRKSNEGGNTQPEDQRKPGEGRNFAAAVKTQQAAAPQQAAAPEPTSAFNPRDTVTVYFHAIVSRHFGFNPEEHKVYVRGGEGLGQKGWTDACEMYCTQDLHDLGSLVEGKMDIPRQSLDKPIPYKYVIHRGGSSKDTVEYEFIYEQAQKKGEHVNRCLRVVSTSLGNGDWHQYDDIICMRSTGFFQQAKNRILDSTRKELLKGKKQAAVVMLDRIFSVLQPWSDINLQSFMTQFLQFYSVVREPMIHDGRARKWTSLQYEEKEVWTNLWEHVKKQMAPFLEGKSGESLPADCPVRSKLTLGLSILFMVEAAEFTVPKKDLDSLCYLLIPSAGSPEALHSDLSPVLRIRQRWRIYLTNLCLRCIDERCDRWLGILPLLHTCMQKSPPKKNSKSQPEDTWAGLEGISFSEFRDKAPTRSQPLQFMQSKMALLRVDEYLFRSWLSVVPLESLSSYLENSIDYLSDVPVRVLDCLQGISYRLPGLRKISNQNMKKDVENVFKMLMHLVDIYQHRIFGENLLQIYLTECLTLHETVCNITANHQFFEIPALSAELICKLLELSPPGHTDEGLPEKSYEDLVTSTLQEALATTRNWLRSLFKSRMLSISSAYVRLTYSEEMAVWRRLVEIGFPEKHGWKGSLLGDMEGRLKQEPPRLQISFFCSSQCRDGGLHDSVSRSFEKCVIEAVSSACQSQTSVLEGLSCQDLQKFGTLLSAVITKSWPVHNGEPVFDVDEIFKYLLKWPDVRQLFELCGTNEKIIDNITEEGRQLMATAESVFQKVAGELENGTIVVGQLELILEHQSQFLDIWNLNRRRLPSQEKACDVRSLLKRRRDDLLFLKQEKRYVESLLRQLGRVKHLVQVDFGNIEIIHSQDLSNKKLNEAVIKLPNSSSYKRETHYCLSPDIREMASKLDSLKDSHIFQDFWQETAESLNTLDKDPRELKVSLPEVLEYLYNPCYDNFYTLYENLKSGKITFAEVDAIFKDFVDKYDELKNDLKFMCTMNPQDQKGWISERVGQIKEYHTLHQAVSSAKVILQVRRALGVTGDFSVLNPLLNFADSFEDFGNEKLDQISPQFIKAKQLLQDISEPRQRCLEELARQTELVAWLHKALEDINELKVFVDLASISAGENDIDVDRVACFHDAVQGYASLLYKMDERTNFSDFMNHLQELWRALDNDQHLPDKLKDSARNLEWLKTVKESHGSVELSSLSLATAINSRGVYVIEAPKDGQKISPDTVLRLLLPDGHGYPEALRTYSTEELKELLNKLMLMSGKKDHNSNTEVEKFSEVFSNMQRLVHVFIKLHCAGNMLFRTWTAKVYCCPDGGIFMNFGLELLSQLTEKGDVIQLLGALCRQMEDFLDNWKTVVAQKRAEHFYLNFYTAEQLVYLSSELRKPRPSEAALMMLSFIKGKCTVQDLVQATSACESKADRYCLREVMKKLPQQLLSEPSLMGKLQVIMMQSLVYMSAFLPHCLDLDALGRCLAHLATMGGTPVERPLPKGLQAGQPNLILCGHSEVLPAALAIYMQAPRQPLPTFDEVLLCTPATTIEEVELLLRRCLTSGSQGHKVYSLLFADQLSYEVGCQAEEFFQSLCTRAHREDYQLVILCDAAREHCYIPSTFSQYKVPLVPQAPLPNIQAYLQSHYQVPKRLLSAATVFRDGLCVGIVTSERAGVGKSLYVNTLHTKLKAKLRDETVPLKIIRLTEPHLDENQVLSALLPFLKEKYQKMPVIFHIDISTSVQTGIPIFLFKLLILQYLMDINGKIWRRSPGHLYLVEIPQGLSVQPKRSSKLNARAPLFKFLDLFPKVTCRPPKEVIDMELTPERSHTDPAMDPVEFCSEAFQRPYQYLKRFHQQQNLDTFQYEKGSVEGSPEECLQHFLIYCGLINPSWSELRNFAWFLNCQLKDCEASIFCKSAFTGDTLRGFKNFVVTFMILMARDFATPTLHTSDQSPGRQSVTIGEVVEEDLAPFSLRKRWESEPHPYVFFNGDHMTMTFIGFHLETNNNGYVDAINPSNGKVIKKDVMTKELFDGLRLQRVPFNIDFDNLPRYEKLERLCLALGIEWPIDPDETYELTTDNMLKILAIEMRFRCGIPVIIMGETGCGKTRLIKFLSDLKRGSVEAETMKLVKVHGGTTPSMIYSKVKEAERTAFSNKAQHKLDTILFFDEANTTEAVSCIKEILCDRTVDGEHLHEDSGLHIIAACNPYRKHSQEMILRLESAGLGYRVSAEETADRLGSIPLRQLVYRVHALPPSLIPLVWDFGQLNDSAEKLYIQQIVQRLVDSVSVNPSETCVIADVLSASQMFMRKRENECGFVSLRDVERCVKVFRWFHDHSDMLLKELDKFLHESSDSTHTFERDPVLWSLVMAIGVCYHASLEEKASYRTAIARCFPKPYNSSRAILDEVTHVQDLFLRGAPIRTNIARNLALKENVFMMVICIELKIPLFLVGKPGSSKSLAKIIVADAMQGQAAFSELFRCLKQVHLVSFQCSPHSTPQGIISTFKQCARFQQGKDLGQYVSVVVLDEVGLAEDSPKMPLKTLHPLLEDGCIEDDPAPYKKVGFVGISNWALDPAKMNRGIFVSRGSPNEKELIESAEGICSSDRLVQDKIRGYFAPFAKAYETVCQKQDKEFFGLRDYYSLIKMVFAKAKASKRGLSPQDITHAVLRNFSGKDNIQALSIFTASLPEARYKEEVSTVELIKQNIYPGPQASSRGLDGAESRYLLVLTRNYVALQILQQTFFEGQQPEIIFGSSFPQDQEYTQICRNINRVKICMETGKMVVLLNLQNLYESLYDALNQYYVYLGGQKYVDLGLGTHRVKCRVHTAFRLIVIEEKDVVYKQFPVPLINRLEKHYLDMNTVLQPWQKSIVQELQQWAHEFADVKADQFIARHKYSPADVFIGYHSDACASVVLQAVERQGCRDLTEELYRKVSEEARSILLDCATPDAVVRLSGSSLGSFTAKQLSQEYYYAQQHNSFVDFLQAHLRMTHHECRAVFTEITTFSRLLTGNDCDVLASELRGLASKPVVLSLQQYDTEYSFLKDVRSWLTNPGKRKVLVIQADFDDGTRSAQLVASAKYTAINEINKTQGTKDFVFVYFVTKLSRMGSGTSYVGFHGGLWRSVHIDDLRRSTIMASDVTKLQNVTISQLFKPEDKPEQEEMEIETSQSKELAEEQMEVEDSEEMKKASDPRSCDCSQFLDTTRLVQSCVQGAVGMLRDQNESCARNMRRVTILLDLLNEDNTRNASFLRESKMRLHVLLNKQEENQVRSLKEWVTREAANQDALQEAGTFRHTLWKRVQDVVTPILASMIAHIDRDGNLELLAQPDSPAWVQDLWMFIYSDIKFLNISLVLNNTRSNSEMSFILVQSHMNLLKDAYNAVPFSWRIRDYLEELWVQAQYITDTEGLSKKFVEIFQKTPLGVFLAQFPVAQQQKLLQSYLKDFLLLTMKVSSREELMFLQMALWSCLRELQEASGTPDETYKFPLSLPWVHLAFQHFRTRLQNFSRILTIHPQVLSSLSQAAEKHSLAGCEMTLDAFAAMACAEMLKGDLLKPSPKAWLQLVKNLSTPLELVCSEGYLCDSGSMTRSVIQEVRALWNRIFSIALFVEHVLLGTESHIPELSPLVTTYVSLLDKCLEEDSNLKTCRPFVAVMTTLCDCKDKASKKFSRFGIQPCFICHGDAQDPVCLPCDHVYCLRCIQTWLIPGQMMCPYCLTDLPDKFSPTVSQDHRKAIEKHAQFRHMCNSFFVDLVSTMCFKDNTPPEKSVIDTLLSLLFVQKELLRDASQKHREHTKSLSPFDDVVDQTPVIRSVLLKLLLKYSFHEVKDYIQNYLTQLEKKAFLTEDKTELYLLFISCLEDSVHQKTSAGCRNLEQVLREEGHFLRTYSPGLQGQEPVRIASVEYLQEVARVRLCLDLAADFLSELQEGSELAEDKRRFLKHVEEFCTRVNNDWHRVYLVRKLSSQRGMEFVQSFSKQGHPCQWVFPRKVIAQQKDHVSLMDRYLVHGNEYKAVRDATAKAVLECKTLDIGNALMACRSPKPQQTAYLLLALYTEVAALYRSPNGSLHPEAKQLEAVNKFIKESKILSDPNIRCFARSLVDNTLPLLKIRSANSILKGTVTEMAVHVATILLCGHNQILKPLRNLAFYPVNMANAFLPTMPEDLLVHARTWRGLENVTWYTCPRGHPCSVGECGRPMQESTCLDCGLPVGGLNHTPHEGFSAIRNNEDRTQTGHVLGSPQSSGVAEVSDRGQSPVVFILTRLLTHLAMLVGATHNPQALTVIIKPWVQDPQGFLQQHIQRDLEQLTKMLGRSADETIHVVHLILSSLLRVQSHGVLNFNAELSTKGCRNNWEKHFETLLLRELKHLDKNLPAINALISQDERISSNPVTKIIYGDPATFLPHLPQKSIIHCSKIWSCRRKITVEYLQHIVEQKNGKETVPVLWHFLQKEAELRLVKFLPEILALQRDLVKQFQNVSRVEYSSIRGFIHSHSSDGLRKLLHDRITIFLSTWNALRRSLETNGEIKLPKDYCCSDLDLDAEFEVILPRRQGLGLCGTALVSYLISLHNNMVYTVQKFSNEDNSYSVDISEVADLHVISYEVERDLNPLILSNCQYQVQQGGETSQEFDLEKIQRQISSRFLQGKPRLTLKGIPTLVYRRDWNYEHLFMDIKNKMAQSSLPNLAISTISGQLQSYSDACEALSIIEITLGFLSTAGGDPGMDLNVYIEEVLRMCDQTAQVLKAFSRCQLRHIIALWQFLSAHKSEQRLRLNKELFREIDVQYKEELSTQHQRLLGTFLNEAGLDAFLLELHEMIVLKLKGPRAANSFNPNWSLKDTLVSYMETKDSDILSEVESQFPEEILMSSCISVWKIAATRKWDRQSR

Target: FLAG-ISG15 (interferon-stimulated gene 15) (mouse) (UniProt Q64339)
Test: co-IP; mGCs transfected with FLAG-ISG15; lysate immunoprecipitated with anti-FLAG beads overnight at 4 °C, PBST washes; candidates detected by immunoblot

binding: binds
Molecule: ring finger protein 213 (RNF213) (from UniProt E9Q555 1-5148)

binding: binds
B1: protease serine 23 (PRSS23) (protein, UniProt Q9D6X6 23-382)
chain: YTVPWKPTWPAYRLPVVLPQSTLNLAKADFDAKAKLEVSSSCGPQCHKGTPLPTYEEAKQYLSYETLYANGSRTETRVGIYILSNGEGRARGRDSEATGRSRRKRQIYGYDGRFSIFGKDFLLNYPFSTSVKLSTGCTGTLVAEKHVLTAAHCIHDGKTYVKGTQKLRVGFLKPKYKDGAGGDNSSSSAMPDKMKFQWIRVKRTHVPKGWIKGNANDIGMDYDYALLELKKPHKRQFMKIGVSPPAKQLPGGRIHFSGYDNDRPGNLVYRFCDVKDETYDLLYQQCDAQPGASGSGVYVRMWKRPQQKWERKIIGIFSGHQWVDMNGSPQDFNVAVRITPLKYAQICYWIKGNYLDCREG
